Experimental data reported in patent US20260335398A1, “METHODS FOR TREATING PANCREATIC CANCER WITH A COMBINATION OF DES-METHYL PATEAMINE A AND A CLASS I HDAC INHIBITOR” (Baylor University, priority 2023, published 2026).
At least one compound was matched to its structure with a doubt left.

Experiments:
H3K9ac = assay: Immunoblot of H3K9ac protein levels (FIGS. 5A-5C, 9C); type: cell-based; settings: romidepsin 15 nM 6 h, with or without DMPatA 2 nM
Procedure: FIGS. 5A-5C are images of immunoblots of protein levels from whole cell extracts of MIA PaCa-2 cell line following treatment with representative combinations Class 1 HDAC inhibitors and DMPatA, DMPatA alone, and HDAC inhibitor alone. FIG. 5A compares immunoblots of H3K9ac (top panel) and GAPDH (bottom panel) protein levels from whole cell extracts of MIA PaCa-2 cells following treatment with the combination of romidepsin and DMPatA and single drugs. Romidepsin treatment was for 6 hours. FIG. 5B compares immunoblots of H3K9ac protein levels from whole cell extracts of MIA PaCa-2 and KLM cells untreated or following treatment with the combination of entinostat and DMPatA and single drugs. Treatments were for various timepoints ranging from 6 to 24 hours. […]
This apparent hypertranscription observed with the combination, was confirmed by the increase in nascent RNA output above the level of normal cells, following treatment for a total of 18 hours (i.e., 6-hour romidepsin followed by 12-hour washout with or without 2 nM DMPatA), quantified using incorporation of the modified RNA precursor 5-EU. […] Because HDAC inhibitors cause histone hyperacetylation and having observed the increase in gene expression following treatment with the combination, the impact of the combination on histone acetylation was assessed. […]

MIA PaCa-2 cells = assay: Metabolic flux analysis, basal glycolysis (PER) (FIG. 8B); type: cell-based; settings: MIA PaCa-2, total 18 h
c-MYC [1] = assay: Immunoblot of c-MYC protein levels in PDAC cell lines treated with DMPatA and DMDAPatA (FIG. 6B); type: cell-based
Procedure: FIG. 6B compares immunoblots of c-MYC protein levels from whole cell extracts of various PDAC cell lines (Capan-1, PANC-t, AsPC-1, MIA PaCa-2) treated with DMPatA (10 nM and 20 nM) and DMDPatA ([…]) (40 nM). Treatment was for 24 and 48 hours.
Western blotting was carried out as previously described (Luchenko V L, Litman T, Chakraborty A R, et al. 65. Membranes were probed with primary antibodies: Phospho-Histone H2A.X (Ser139) (1:1000, Millipore Sigma #05-636), GAPDH (1:10000, Abcam #ab8245), c-Myc (1:1000, Abcam #ab32072), β-Actin (1:1000, Cell Signaling Technology (CST), #8457), Phospho-RPA32/RPA2 (Ser33) (1:1000, Cell Signaling Technology #10148), Phospho-Chk1 (Ser345) (1:1000, CST #2341), and secondary antibodies IRDye® 680RD Goat anti-Mouse and IRDye® 800CW Goat anti-Rabbit (both from LI-COR Biosciences). Signal quantification was performed using the Odyssey CLx imaging system (LI-COR Biosciences), capturing various exposures within the linear range with ImageStudio software V3.1 (LI-COR Biosciences).

c-MYC [2] = assay: Immunohistochemistry of c-MYC in MIA PaCa-2 xenograft tumor tissue (FIG. 2D); type: in vivo, athymic nude mice; settings: IHC, tumors at end of study
SNRPN locus = assay: DRIP-qPCR R-loop accumulation at negative locus SNRPN (FIG. 10A); type: cell-based; settings: MIA PaCa-2, 6+3 hours
Procedure: FIG. 10A illustrates the fold increase in the percent of input values in DRIP-qPCR for the VGF, HBA2, and SNRPN loci in MIA PaCa-2 cells treated with or without the combination or single agents. Genomic DNA was treated in vitro with or without RNaseH1 before immunoprecipitation using S9.6 antibody. Treatment was for 6+3 hours (i.e., 6-hour romidepsin followed by 3-hour washout with 2 nM DMPatA (combo) or without). Statistical significance was determined by 3-way ANOVA, ***p value<0.001. This experiment confirms the formation of R-loops at the investigated gene loci.
Romidepsin-induced histone hyperacetylation leads to the accumulation of R-loops that can increase genome instability. Because treatment of cells with the combination increased global transcription and led to persistence of histone hyperacetylation, it was postulated the treatment could similarly enhance the formation of R-loops and contribute to cell death. R-loop accumulation was further confirmed using DRIP-qPCR. […]
DRIP assay was performed according to the method previously described (Sanz L A, Chédin F. High-resolution, strand-specific R-loop mapping via S9. 6-based DNA-RNA immunoprecipitation and high-throughput sequencing. Nature protocols. 2019; 14(6):1734). […] Quantitative PCR was performed at the R-loop positive loci VGF and HBA2 genes and R-loop negative locus SNRPN gene with the primers listed in Table 1.

## CC(/C=C/C(C)=C/[C@@H]1Cc2nc(cs2)CC[C@@H](N)CC(=O)O[C@@H](C)C/C(C)=C/C=C\C(=O)O1)=C\CN(C)C [DMPatA, des-methyl pateamine A]
H3K9ac
  H3K9 acetylation: did not result in histone acetylation
MIA PaCa-2 cells
  glycolysis (proton efflux rate, PER): impaired glycolysis
c-MYC [1]; Capan-1, PANC-1, AsPC-1, MIA PaCa-2, 24 and 48 hours, DMPatA 10 and 20 nM, DMDAPatA 40 nM
  c-MYC protein levels: reduced c-MYC levels in all cell lines
c-MYC [1]; DMPatA 10 and 20 nM vs DMDAPatA 40 nM
  effect on c-MYC levels relative to DMDAPatA: comparable effects at lower doses
c-MYC [2]
  c-MYC protein expression in tumor: lower levels of c-MYC protein expression
SNRPN locus
  R-loop accumulation at SNRPN: no accumulation of R-loops
